In all, about 220,000 compounds went through this assay and about 770 (0.35%) were called active. The shares of active, inactive and inconclusive entries below differ from those in the screen. Cut-off read from the data, not from the text of the source: active = binding response below about 49% or above about 150%; inconclusive = no clear call, values can overlap the other calls; inactive = in between.
target: Guanine nucleotide-binding protein G(o) subunit alpha (Homo sapiens) (UniProt P09471); experiment: RGS7-Galphao binding modulators, primary screen, biochemical, multiplexed bead flow cytometry (AID 1439); conditions: at 10 µM, actives lie on both sides;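 note: fluorescent Galphao held in activated GDP-AlF4 state binding bead-coupled RGS7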

Amino acid sequences for entries named in this document (tags omitted).
UniProt P09471, whole entry, looked up: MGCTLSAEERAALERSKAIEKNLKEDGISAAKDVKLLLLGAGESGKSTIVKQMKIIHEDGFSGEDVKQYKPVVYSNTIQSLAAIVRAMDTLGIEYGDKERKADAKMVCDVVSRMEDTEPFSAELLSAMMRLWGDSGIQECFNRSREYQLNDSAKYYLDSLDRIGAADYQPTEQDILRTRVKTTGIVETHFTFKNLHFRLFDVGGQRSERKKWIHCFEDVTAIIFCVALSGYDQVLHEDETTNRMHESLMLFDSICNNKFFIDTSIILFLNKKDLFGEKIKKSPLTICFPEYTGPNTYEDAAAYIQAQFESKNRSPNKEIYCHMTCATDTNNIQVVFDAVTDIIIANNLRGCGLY

Row | Compound | binding response (% of control)
1 | Brc1c(C[n+]2ccccc2)nc2ccccn12 | inconclusive: 64.8%
2 | COC(=O)c1[nH]c2ccccc2c1NC(=O)CN1CCCCCC1 | inactive: 106%
3 | NC(N)=NS(=O)(=O)c1ccc(NC(=S)NC(=O)c2ccccc2)cc1 | inconclusive: 123%
4 | O=C(CN1CCOCC1)NCc1ccccc1 | inactive: 135%
5 | Cc1ccc(S(=O)(=O)Nc2ccc(N(C)S(=O)(=O)c3ccc(C)cc3)cc2)cc1 | inconclusive: 107%
6 | CCCCN(c1ccccc1)S(=O)(=O)c1cccc2cccnc12 | inconclusive: 30.8%
7 | CSc1ccc(C(=O)C2CCCN(Cc3cccc4nccnc34)C2)cc1 (configuration not stated) | inconclusive: 96.9%
8 | CC1C(=O)O[C@@H]2C[C@@H](C)[C@@H]3CCC(=O)[C@@]3(C)[C@@H](O)[C@H]12 (some centres not stated) | inconclusive: 88.6%
9 | O=C(Cc1ccc(Cl)cc1)NNC(=S)NC(=O)c1cccnc1 | inactive: 92.8%
10 | COc1ccccc1C(=O)NC(C)C(c1cccs1)N1CCOCC1 (configuration not stated) | inactive: 110%
11 | O=C(c1ccncc1)N1N=C(C2CCCCC2)CC1(O)C(F)(F)F (configuration not stated) | inactive: 50.8%
12 | O=[N+]([O-])c1ccc(OCc2cn([C@@H](CO)c3ccccc3)nn2)c(Br)c1 | inconclusive: 80.6%
13 | COc1ccc(CC(=O)N2CCN=C2SC)cc1OC | inconclusive: 84.1%
14 | CN1CCN(c2ccc(Cl)cc2NC(=O)/C=C/c2ccc(F)cc2)CC1 | inconclusive: 103%
15 | COc1ccc(C2/C(=C(/O)c3ccc(C)cc3)C(=O)C(=O)N2c2ccccn2)cc1OC (configuration not stated) | inconclusive: 83.8%
16 | CC1(C)CC(=O)C(C=Nc2ccc(NC3=C(C#N)C(=O)CC(C)(C)C3)cc2)=C(O)C1 | inconclusive: 113%
17 | CS(=O)(=O)N1CCN(c2ccc([N+](=O)[O-])c(NCc3ccc(Cl)cc3)c2)CC1 | inactive: 101%
18 | O=C(NCc1ccco1)c1cnn2cccnc12 | inconclusive: 97.2%
19 | Cc1cc(C)cc(NC(=O)Nc2ccccc2N2CCCCC2)c1 | inconclusive: 113%

Row | Compound | binding response (% of control)
20 | Cc1ncoc1C(=O)N1CCCC(C(=O)c2ccc(C(F)(F)F)cc2)C1 (configuration not stated) | inactive: 102%
21 | NNC(=O)CS(=O)(=O)CS(=O)(=O)CC(=O)NN | inconclusive: 143%
22 | CC1=C(C(=O)c2ccccc2)C(c2cccc([N+](=O)[O-])c2)NC(=S)N1 (configuration not stated) | inconclusive: 83.7%
23 | Cc1cccc(N2C(=O)C(Oc3ccc(Cl)cc3Cl)C2C=O)c1C (configuration not stated) | inactive: 100%
24 | O=C(Nc1cccc(S(=O)(=O)N2CCOCC2)c1)c1cc2ccccc2o1 | inconclusive: 95.2%
25 | Cc1cccc(N2C(=O)C(Cl)=C(N3CCOCC3)C2=O)c1 | inconclusive: 91.1%
26 | CC(C)Cn1c(SCc2nc3ccccc3c(=O)[nH]2)nc2ccccc2c1=O | inactive: 92%
27 | CCOC(=O)Cc1csc(NC(=O)/C=C/c2ccccc2Cl)n1 | inconclusive: 80.6%
28 | Cn1nccc1C(=O)N/N=C/c1cccnc1 | inconclusive: 91.5%
29 | COc1ccc(C[C@H]2CN3C(=NC[C@@H]3C(C)C)N2CCNC(=O)CCC2CCCCC2)cc1 | active: 9.97%
30 | Cc1cc(C)cc(NC(=O)N(C)Cc2ccccc2)c1 | inconclusive: 95.6%
31 | COc1ccccc1NC(=O)c1cc2c(=O)n(C)c3ccccc3c2n1C | inconclusive: 63.7%
32 | CCCc1cc(=O)[nH]c(SCC(=O)N2CCN(c3ccc(F)cc3)CC2)n1 | inactive: 104%
33 | CC1=C(C(=O)N2CCOCC2)C(c2ccc(-c3ccccc3)cc2)NC(=S)N1 (configuration not stated) | inconclusive: 90.5%
34 | CCOc1cc(N2CCCC2)ccc1[N+](=O)[O-] | inactive: 102%
35 | CCCCn1nc(CC(=O)NCCN(CC)CC)c2ccccc2c1=O | inconclusive: 106%
36 | COc1ccc(CNC(=O)C(Cc2ccccc2)n2cccc2)cc1 (configuration not stated) | inconclusive: 111%
37 | Cc1ccc(S(=O)(=O)N2CCN(C(=O)CSc3nccn3C)CC2)cc1 | inconclusive: 44.1%
38 | Cc1ccc(CS(=O)(=O)c2ccc(C(=O)N3CCN(c4ccccn4)CC3)cc2[N+](=O)[O-])cc1 | inactive: 99.9%

14 entries from above, reformatted.
Row	Compound	binding response (% of control)
25	Cc1cccc(N2C(=O)C(Cl)=C(N3CCOCC3)C2=O)c1	inconclusive: 91.1%
26	CC(C)Cn1c(SCc2nc3ccccc3c(=O)[nH]2)nc2ccccc2c1=O	inactive: 92%
27	CCOC(=O)Cc1csc(NC(=O)/C=C/c2ccccc2Cl)n1	inconclusive: 80.6%
28	Cn1nccc1C(=O)N/N=C/c1cccnc1	inconclusive: 91.5%
29	COc1ccc(C[C@H]2CN3C(=NC[C@@H]3C(C)C)N2CCNC(=O)CCC2CCCCC2)cc1	active: 9.97%
30	Cc1cc(C)cc(NC(=O)N(C)Cc2ccccc2)c1	inconclusive: 95.6%
31	COc1ccccc1NC(=O)c1cc2c(=O)n(C)c3ccccc3c2n1C	inconclusive: 63.7%
32	CCCc1cc(=O)[nH]c(SCC(=O)N2CCN(c3ccc(F)cc3)CC2)n1	inactive: 104%
33	CC1=C(C(=O)N2CCOCC2)C(c2ccc(-c3ccccc3)cc2)NC(=S)N1 (configuration not stated)	inconclusive: 90.5%
34	CCOc1cc(N2CCCC2)ccc1[N+](=O)[O-]	inactive: 102%
35	CCCCn1nc(CC(=O)NCCN(CC)CC)c2ccccc2c1=O	inconclusive: 106%
36	COc1ccc(CNC(=O)C(Cc2ccccc2)n2cccc2)cc1 (configuration not stated)	inconclusive: 111%
37	Cc1ccc(S(=O)(=O)N2CCN(C(=O)CSc3nccn3C)CC2)cc1	inconclusive: 44.1%
38	Cc1ccc(CS(=O)(=O)c2ccc(C(=O)N3CCN(c4ccccn4)CC3)cc2[N+](=O)[O-])cc1	inactive: 99.9%

(more compounds)

Row | Compound | binding response (% of control)
39 | CN(CC(=O)N1CCCC1)S(=O)(=O)c1ccc2ccccc2c1 | inactive: 106%
40 | Cn1c(N)c(C(=O)COC(=O)C2CCN(S(=O)(=O)c3cccs3)CC2)c(=O)n(C)c1=O | inconclusive: 118%
41 | O=C(Cc1n[nH]c(=O)[nH]c1=O)N/N=C/c1cccc(Cl)c1 | inconclusive: -224%
42 | COc1ccc(-n2c(CN3CCN(Cc4ccccc4)CC3)nc3ccc([N+](=O)[O-])cc3c2=O)c(OC)c1 | inconclusive: 80.5%
43 | O=C(CSc1nnc2c(n1)[nH]c1ccccc12)NCc1ccco1 | inconclusive: 105%
44 | COc1ccc(CNC(=O)COC(=O)C2CCC(C(C)(C)C)CC2)cc1 (configuration not stated) | inactive: 101%
45 | O=C(Cn1nnc2ccccc2c1=O)N[C@H](C(=O)O)c1ccccc1 | inconclusive: 79.5%
46 | Cn1cccc1/C=N/N1CCN(Cc2ccc(Cl)cc2)CC1 | inconclusive: 132%
47 | CCCCCC(=O)Nc1cccc(C2=NOC3(C2)C[C@@H](C(N)=O)N(C(=O)c2ccc(Cl)cc2)C3)c1 (some centres not stated) | inconclusive: 110%
48 | C1CCCC(NC2=NCCO2)CCC1 | inconclusive: 69.4%
49 | CC1CCN(C(=O)CCCNC(=O)Cn2cnc3sc4c(c3c2=O)CCCC4)CC1 | inactive: 99.2%
50 | COc1cc(OC)c(/C=N/NC(=O)COc2cccc3cccnc23)c(OC)c1 | inconclusive: 41.9%
51 | CSc1cccc(NC(N)=S)c1 | inconclusive: 135%
52 | Cc1ccc(NC(=S)NNC(=O)c2cccc([N+](=O)[O-])c2)cc1Cl | inconclusive: 283%
53 | CC1(C)OC(=CC=Nc2ccc(Cl)cc2)OC1(C)C | inconclusive: 265%
54 | COc1ccc(C)cc1NC(=O)C(=O)N1CCCC1 | inconclusive: 105%
55 | CN(C)CCCN(CCCN(C)C)C(=S)Nc1ccc(S(=O)(=O)N2CCOCC2)cc1 | inconclusive: 97.5%
56 | CC(=O)NC(CC(=O)O)c1ccccc1 (configuration not stated) | inconclusive: 73.7%
57 | COc1ccc(CN(C(=O)COc2ccccc2)c2ccccc2C(=O)O)cc1 | inconclusive: 42.2%
